# Results taken from the supplement of paper PMC8728848.
# The list shows a part of the results.
# Experiments:
# Assay in all cases: glycan array binding signal (z-score within array); higher = stronger binding
# Conditions in all cases: glycan notation: IUPAC condensed, linker removed
# [1] = target: Gal3S(b1-3)[Fuc(a1-4)]GlcNAc
# How it was run: (§1)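 Glycan array data were curated from 3228 arrays in the Consortium for Functional Glycomics database and kept only where the protein sequence was available. Glycan names were converted to IUPAC-condensed notation, and columns mapping to the same glycan were averaged. The binding signal is a within-array Z-score, averaged across arrays of the same protein sequence at different concentrations or buffers and across linkers. Negative Z-scores can be read as non-binding.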
# [2] = target: Gal3S(b1-4)Glc
# How it was run: as §1
# [3] = target: Gal3S(b1-4)Glc6S
# How it was run: as §1
# [4] = target: Gal3S(b1-4)GlcNAc
# How it was run: as §1
# [5] = target: Gal3S(b1-4)GlcNAc6S
# How it was run: as §1
# [6] = target: Gal3S(b1-4)[Fuc(a1-3)]Glc
# How it was run: as §1
# [7] = target: Gal3S(b1-4)[Fuc(a1-3)]Glc6S
# How it was run: as §1
# [8] = target: Gal3S4S(b1-4)GlcNAc
# How it was run: as §1
# [9] = target: Gal3S6S(b1-4)GlcNAc
# How it was run: as §1
# [10] = target: Gal3S6S(b1-4)GlcNAc6S
# How it was run: as §1
# [11] = target: Gal4S(b1-4)GlcNAc
# How it was run: as §1
# [12] = target: Gal4S6S(b1-4)GlcNAc
# How it was run: as §1
# [13] = target: Gal6S(b1-3)GlcNAc
# How it was run: as §1
# [14] = target: Gal6S(b1-3)GlcNAc6S
# How it was run: as §1
# [15] = target: Gal6S(b1-4)Glc
# How it was run: as §1
# [16] = target: Gal6S(b1-4)Glc6S
# How it was run: as §1
# [17] = target: Gal6S(b1-4)GlcNAc
# How it was run: as §1
# [18] = target: Gal6S(b1-4)GlcNAc6S
# How it was run: as §1
# [19] = target: GalNAc(a1-3)Gal
# How it was run: as §1
# [20] = target: GalNAc(a1-3)GalNAc
# How it was run: as §1
# [21] = target: GalNAc(a1-3)GalNAc(b1-3)Gal(a1-4)Gal(b1-4)Glc
# How it was run: as §1
# [22] = target: GalNAc(a1-3)GalNAc(b1-3)Gal(a1-4)Gal(b1-4)GlcNAc
# How it was run: as §1
# [23] = target: GalNAc(b1-3)Gal
# How it was run: as §1
# [24] = target: GalNAc(b1-3)Gal(a1-4)Gal(b1-4)GlcNAc
# How it was run: as §1
# [25] = target: GalNAc(b1-3)Gal(a1-4)Gal(b1-4)GlcNAc(b1-3)Gal(b1-4)Glc
# How it was run: as §1
# [26] = target: GalNAc(b1-3)Gal(a1-6)Gal(b1-4)Glc
# How it was run: as §1
# [27] = target: GalNAc(b1-3)GalNAc
# How it was run: as §1
# [28] = target: GalNAc(b1-4)Gal(b1-4)Glc
# How it was run: as §1
# [29] = target: GalNAc(b1-4)GlcNAc
# How it was run: as §1
# [30] = target: GalNAc(b1-4)GlcNAc(b1-2)Man(a1-3)[GalNAc(b1-4)GlcNAc(b1-2)Man(a1-6)]Man(b1-4)GlcNAc(b1-4)GlcNAc
# How it was run: as §1
# [31] = target: GalNAc(b1-6)GalNAc
# How it was run: as §1
# [32] = target: Glc(a1-4)Glc
# How it was run: as §1
# [33] = target: Glc(a1-4)Glc(a1-4)Glc(a1-4)Glc
# How it was run: as §1
# [34] = target: Glc(a1-6)Glc(a1-6)Glc
# How it was run: as §1
# [35] = target: Glc(a1-6)Glc(a1-6)Glc(a1-6)Glc
# How it was run: as §1
# [36] = target: Glc(b1-4)Glc
# How it was run: as §1
# [37] = target: Glc(b1-6)Glc
# How it was run: as §1
binder,measurement,setting,value
"Intelectin 1 (Homo sapiens), Q8WWA0 (protein) MNQLSFLLFLIATTRGWSTDEANTYFKEWTCSSSPSLPRSCKEIKDECPSAFDGLYFLRTENGVIYQTFCDMTSGGGGWTLVASVHENDMRGKCTVGDRWSSQQGSKAVYPEGDGNWANYNTFGSAEAATSDDYKNPGYYDIQAKDLGIWHVPNKSPMQHWRNSSLLRYRTDTGFLQTLGHNLFGIYQKYPVKYGEGKCWTDNGPVIPVVYDFGDAQKTASYYSPYGQREFTAGFVQFRVFNNERAANALCAGMRVTGCNTEHHCIGGGGYFPEASPQQCGDFSGFDWSGYGTHVGYSSSREITEAAVLLFYR",glycan array binding signal (z-score),[1],0.759
same,glycan array binding signal (z-score),[2],0.117
same,glycan array binding signal (z-score),[3],-0.145
same,glycan array binding signal (z-score),[4],-0.906
same,glycan array binding signal (z-score),[5],-0.878
same,glycan array binding signal (z-score),[6],-0.184
same,glycan array binding signal (z-score),[7],0.387
same,glycan array binding signal (z-score),[8],-0.194
same,glycan array binding signal (z-score),[9],-1.23
same,glycan array binding signal (z-score),[10],-0.36
same,glycan array binding signal (z-score),[11],0.07
same,glycan array binding signal (z-score),[12],-0.783
same,glycan array binding signal (z-score),[13],0.867
same,glycan array binding signal (z-score),[14],1.05
same,glycan array binding signal (z-score),[15],-0.449
same,glycan array binding signal (z-score),[16],-0.149
same,glycan array binding signal (z-score),[17],-0.102
same,glycan array binding signal (z-score),[18],1.22
same,glycan array binding signal (z-score),[19],0.035
same,glycan array binding signal (z-score),[20],-0.766
same,glycan array binding signal (z-score),[21],-0.596
same,glycan array binding signal (z-score),[22],-0.039
same,glycan array binding signal (z-score),[23],2.09
same,glycan array binding signal (z-score),[24],-0.635
same,glycan array binding signal (z-score),[25],-0.703
same,glycan array binding signal (z-score),[26],-0.442
same,glycan array binding signal (z-score),[27],-0.802
same,glycan array binding signal (z-score),[28],0.205
same,glycan array binding signal (z-score),[29],-0.182
same,glycan array binding signal (z-score),[30],0.358
same,glycan array binding signal (z-score),[31],0.608
same,glycan array binding signal (z-score),[32],-0.436
same,glycan array binding signal (z-score),[33],0.146
same,glycan array binding signal (z-score),[34],0.027
same,glycan array binding signal (z-score),[35],0.434
same,glycan array binding signal (z-score),[36],-0.617
same,glycan array binding signal (z-score),[37],-0.722
